In the supplement of paper PMC12889115:
The other results are listed elsewhere or left out. Values are raw readings; no control value is given beside them.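 Primary screen: polymyxin B was added at a level permeabilizing Salmonella outer membranes while sparing inner membranes. DMSO wells, both with and without polymyxin B, established maximum growth. Plate-to-plate variation meant each plate was ranked on its own, and the lowest-OD600 compounds were selected as hits.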

Test system: Salmonella enterica serovar Typhimurium SL1344
Assay: bacterial growth OD600 after 18 h with compound and polymyxin B; higher = more bacterial growth (less inhibition)
Details: 50 µM, Mueller-Hinton broth

SMILES	bacterial growth OD600 (polymyxin B 1 µg/mL)	bacterial growth OD600 (polymyxin B 0.75 µg/mL)
O=C(NC1CCCCC1)C1CCC(=O)N(C2CC2)C1 (stereo not drawn)	0.896	
CN(Cc1ccncn1)C(=O)C1(N2CCCCC2)Cc2ccccc2C1		0.667
O=C(c1ccc(OC2CCN(CCc3ccccc3)CC2)cc1)N1CCN(CCO)CC1	1.32	
CC(=O)c1ccc(C(=O)N2CCCC(N3CCN(c4ccccc4C)CC3)C2)cc1 (stereo not drawn)	0.837	
COc1ccccc1CN1CCCC(CN(CCN(C)C)C(=O)c2cccs2)C1 (stereo not drawn)		0.849
COC(=O)CCC(=O)N1CCCC(CCC(=O)Nc2ccc(OC)c(Cl)c2)C1 (stereo not drawn)	0.905	
CC(=O)c1cc(C(=O)N2CCCC(CCc3ccc(F)cc3F)C2)[nH]n1 (stereo not drawn)		0.698
COc1cccc(NC(=O)N(C)CC2CCCN(CCc3ccccc3OC)C2)c1 (stereo not drawn)	0.974	

A run of entries of the results above, as a working copy:
SMILES	bacterial growth OD600 (polymyxin B 1 µg/mL)	bacterial growth OD600 (polymyxin B 0.75 µg/mL)
CN(Cc1ccncn1)C(=O)C1(N2CCCCC2)Cc2ccccc2C1		0.667
O=C(c1ccc(OC2CCN(CCc3ccccc3)CC2)cc1)N1CCN(CCO)CC1	1.32	
